{"source": "patent US20230284994A1", "about": "“PET-CT IMAGING METHODS, CONTRAST AGENTS AND PHARMACEUTICAL COMPOSITIONS FOR USE IN SAID IMAGING METHODS” (ADIPOSS SÁRL, priority 2020, published 2023)", "origin": "cited, not measured here", "system": "sites of malignancy", "settings": "18FDG PET, benign diseases; cited from earlier work", "data": [{"smiles": "O=C[C@H]([18F])[C@@H](O)[C@H](O)[C@H](O)CO", "note": "[^18FDG, 2-[fluorine-18]fluoro-2-deoxy-D-glucose]", "values": [{"measurement": "false positive rate", "result": 13, "unit": "%"}]}]}
